Results on 4 substances are retold here after article PMC8897400.

Sequences of proteins named here, by UniProt entry; tags and fusion partners are left off. A change or cut given only in a name is not applied to a line headed by its entry.
UniProt O95373: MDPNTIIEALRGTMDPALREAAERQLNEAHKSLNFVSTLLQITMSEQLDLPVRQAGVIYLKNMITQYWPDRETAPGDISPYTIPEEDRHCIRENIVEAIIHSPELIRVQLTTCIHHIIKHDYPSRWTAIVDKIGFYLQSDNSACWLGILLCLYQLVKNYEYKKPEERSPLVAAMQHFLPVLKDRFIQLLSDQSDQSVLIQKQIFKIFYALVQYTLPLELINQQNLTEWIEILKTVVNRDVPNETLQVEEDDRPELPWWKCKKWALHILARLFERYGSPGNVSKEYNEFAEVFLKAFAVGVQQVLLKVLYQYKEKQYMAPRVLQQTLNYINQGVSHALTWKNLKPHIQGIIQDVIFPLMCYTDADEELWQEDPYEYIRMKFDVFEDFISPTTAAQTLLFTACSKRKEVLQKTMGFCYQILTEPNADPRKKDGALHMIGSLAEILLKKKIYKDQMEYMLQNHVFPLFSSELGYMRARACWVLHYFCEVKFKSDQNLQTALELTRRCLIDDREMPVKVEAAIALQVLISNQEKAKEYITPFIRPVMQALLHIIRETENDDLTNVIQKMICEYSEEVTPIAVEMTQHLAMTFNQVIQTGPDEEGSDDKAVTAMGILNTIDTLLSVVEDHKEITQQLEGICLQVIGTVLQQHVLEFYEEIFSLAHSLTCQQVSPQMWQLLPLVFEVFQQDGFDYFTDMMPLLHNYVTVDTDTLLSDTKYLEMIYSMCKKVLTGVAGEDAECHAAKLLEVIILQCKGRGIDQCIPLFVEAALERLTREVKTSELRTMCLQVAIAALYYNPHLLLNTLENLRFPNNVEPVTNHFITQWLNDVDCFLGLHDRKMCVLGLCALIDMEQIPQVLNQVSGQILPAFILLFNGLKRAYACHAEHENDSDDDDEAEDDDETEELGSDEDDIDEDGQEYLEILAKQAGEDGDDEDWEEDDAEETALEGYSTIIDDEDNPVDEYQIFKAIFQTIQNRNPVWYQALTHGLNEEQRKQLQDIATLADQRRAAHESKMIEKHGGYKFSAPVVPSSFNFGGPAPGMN
UniProt P46937: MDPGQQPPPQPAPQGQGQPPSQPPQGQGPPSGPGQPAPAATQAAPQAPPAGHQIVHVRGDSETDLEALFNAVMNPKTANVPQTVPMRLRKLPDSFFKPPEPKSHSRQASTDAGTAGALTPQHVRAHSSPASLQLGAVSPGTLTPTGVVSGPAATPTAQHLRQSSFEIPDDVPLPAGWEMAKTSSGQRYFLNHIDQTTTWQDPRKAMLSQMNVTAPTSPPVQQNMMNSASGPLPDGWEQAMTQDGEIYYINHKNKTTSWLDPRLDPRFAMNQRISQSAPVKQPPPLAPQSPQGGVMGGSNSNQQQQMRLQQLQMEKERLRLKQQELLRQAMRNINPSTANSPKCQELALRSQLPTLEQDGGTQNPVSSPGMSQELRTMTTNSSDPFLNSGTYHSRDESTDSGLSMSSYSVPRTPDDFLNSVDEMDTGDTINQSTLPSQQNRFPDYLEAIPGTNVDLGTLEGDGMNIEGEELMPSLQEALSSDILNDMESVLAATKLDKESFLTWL
UniProt P84022: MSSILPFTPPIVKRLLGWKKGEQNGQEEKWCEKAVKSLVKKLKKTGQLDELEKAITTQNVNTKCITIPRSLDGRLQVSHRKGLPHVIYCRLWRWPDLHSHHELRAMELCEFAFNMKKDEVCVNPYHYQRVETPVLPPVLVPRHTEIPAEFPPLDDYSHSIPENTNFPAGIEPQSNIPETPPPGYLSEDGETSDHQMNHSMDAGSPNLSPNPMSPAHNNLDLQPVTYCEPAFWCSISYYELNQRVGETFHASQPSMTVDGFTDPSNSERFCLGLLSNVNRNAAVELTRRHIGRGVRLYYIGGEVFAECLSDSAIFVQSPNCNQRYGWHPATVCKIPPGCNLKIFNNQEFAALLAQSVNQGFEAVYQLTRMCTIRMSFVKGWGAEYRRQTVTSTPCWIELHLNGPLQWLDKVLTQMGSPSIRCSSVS

The target in assay [1] is endogenous Importin-7 (human (endogenous in RPE-1)) (UniProt O95373). As to the kind of experiment: condition: only cells treated with Cyt D (1 µM, 1 h), without XMU-MP-1; co-IP; anti-Imp7 immunoprecipitation from lysates of cells at low confluence treated with Cyt D (1 µM, 1 h), without XMU-MP-1.
For assay [2] the target is unchanged. As to the kind of experiment: co-IP; anti-Imp7 immunoprecipitation from RPE-1 lysates, blot for YAP; low confluence; also high confluence with XMU-MP-1 (6 µM, 16 h) and low confluence with Cyt D plus XMU-MP-1; IP buffer 50 mM Tris-HCl pH 8.0, 100 mM NaCl, 1% Triton X-100.
Assay [3] has the same target. As to the kind of experiment: condition: only cells treated with Y27632 (25 µM, 1 h); proximity ligation; in situ PLA of endogenous YAP and Imp7 in RPE-1 cells treated with Y27632 (25 µM, 1 h).
Assay [4] shares this target. As to the kind of experiment: proximity ligation; in situ PLA (Duolink) of endogenous YAP (antibody 63.7) and Imp7 (rabbit antibody) in fixed, permeabilised RPE-1 cells; also after knock-down of Imp7, YAP or Smad3.
Assay [5] has the same target. As to the kind of experiment: condition: only cells treated with blebbistatin (10 µM, 1 h); proximity ligation; in situ PLA of endogenous YAP and Imp7 in RPE-1 cells treated with blebbistatin (10 µM, 1 h).
Assay [6] has the same target. The assay is described as follows: condition: only cells treated with Cyt D (1 µM, 1 h); proximity ligation; in situ PLA of endogenous YAP and Imp7 in RPE-1 cells treated with Cyt D (1 µM, 1 h).
Assay [7] has the same target. The assay is described as follows: condition: only cells at high confluence, without XMU-MP-1; co-IP; anti-Imp7 immunoprecipitation from lysates of cells at high confluence, vehicle.
The target is the same in assay [8]. As to the kind of experiment: proximity ligation; in situ PLA of endogenous Smad3 and Imp7 in RPE-1 cells; low or high confluence, with or without TGFβ, YAP, Imp7 or Smad3 siRNAs, EYFP-YAP overexpression, XMU-MP-1.
Assay [9] has the same target. The assay is described as follows: co-IP; YAP wild type or mutants (EYFP-YAP forms, YAP S5A) expressed in cells, co-immunoprecipitation with endogenous Imp7 (Supplementary Fig. 7a-d); cell line and precipitating antibody not told in the text shown.
Another assay deals with GST-Imp7 (UniProt O95373). As to the kind of experiment: pull-down; GST-Imp7 or GST on Sepharose beads mixed with GFP8Q, GFP8Q-YAP or its mutants in IP buffer, 4 °C, 1.5 h; washed; SDS-PAGE, Coomassie; both purified.

These are yes or no findings as the source states them, for the method shown. For some of these results: In cells and extracts the contact can be indirect. Some results given as binding are weak or reduced against the parent protein; the word gives no strength.

In the case of “endogenous YAP (from UniProt P46937 1-504)”, the binding result in assay [1] is “no binding”; in [2], “binds”; in assay [3], “no binding”; in assay [4] it was “binds”; in assay [5], “no binding”; in assay [6], “no binding”. Moreover, the binding result in [7] is on record as “no binding”.

With “endogenous Smad3 (from UniProt P84022 1-425)”, in assay [8], the binding result is given as “binds”.

For the substance EYFP-YAP (from UniProt P46937-1 1-504), the binding entry in assay [9] is given as “binds”.

Consider GFP8Q-YAP (from UniProt P46937 1-504), for which the binding result with GST-Imp7 is recorded as “binds”.
